Data from publication PMC6839619.
No constants are given. Whether binding was seen depends on the method and setting. Binding can be weak; no strength is given. Where a sequence is shown, tags or fusion partners need not be part of it.

Assays:
StrepII-GFP-TRIM46 [1] = target: T1, StrepII-GFP-TRIM46 (UniProt Q7Z4K8); assay: TIRF microscopy of in vitro reconstituted dynamic microtubules; 20 nM dark-EB3, 20 nM GFP-TRIM46 and 10 nM 480AnkG-mCherry together; single MTs and TRIM46-decorated two-MT bundles; MRB80 buffer pH 6.8 with 50 mM KCl, 30°C; both purified
T1 sequence: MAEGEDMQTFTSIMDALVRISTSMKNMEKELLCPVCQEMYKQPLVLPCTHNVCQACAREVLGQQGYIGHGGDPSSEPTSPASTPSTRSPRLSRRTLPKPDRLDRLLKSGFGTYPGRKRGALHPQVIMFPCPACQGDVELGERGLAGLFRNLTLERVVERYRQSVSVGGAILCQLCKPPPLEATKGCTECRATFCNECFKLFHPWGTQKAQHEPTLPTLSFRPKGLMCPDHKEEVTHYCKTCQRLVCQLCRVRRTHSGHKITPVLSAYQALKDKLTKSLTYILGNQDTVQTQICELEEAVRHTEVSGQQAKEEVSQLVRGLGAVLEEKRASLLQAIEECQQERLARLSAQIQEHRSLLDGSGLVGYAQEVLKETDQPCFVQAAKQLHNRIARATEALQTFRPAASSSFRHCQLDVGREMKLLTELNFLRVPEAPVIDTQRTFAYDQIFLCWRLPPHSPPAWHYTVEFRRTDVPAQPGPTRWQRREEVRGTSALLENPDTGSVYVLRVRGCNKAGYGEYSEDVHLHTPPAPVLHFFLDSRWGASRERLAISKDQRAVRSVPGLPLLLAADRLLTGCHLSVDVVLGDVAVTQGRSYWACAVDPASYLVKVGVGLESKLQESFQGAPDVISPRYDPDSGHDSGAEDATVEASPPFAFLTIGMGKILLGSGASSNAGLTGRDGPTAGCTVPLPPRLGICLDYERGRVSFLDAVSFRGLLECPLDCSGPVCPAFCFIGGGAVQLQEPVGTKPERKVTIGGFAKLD

StrepII-GFP-TRIM46 [2] = target: T1, StrepII-GFP-TRIM46; assay: TIRF microscopy of in vitro reconstituted dynamic microtubules; without EBs; TRIM46 with 480AnkG or 480AnkG-NN; single MTs and TRIM46-decorated MT bundles; both purified

Substance: StrepII-480AnkG-mCherry
- binding (StrepII-GFP-TRIM46 [1]): binds weakly
- binding (StrepII-GFP-TRIM46 [2]): binds weakly
